Construct, isoform or probe ends are uncertain for at least one entry. For some assays here: Negatives hold for the conditions tested. For some assays here: Weaker means in comparison with the reference protein, sequence or condition of that experiment. For some assays here: At least one verdict rests on a figure or table, not on a statement of the authors.
Columns and labels:
FOXA2 forkhead domain [1] = target: FOXA2 forkhead domain (UniProt Q9Y261); assay: EMSA; conditions: 200 uM compound T, PRE or POST
FOXA1 forkhead domain [2] = target: FOXA1 forkhead domain (UniProt P55317); assay: EMSA
[3] = system: FOXA1 forkhead domain + FOXA2 forkhead domain, Twin-Strep-tagged; assay: EMSA; conditions: 200 uM compound T
[4] = target: FOXA2 forkhead domain, Twin-Strep-tagged (UniProt Q9Y261); assay: EMSA; conditions: 400 nM protein
FOXA2 forkhead domain [5] = target: FOXA2 forkhead domain (UniProt Q9Y261); assay: BLI; conditions: 100 uM compound T, text: disabled from binding
FOXA1 forkhead domain [6] = target: FOXA1 forkhead domain (UniProt P55317); assay: BLI; conditions: 100 uM compound T, text: disabled from binding

Sequences of proteins named here, by UniProt entry; tags and fusion partners are left off. Residues count along the entry.
UniProt Q9Y261, 159-252: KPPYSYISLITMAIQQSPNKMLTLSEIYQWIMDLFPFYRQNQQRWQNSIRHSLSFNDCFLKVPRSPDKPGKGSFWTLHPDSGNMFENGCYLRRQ
UniProt P55317, 169-260: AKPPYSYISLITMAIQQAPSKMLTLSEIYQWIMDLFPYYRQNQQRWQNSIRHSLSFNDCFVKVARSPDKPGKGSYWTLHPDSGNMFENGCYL

Row | Sequence | binding result (FOXA2 forkhead domain [1]) | binding result (FOXA1 forkhead domain [2]; 200 uM compound T, PRE or POST) | binding result [3] | binding result ([4]; homodimer) | binding result (FOXA1 forkhead domain [2]) | binding result [4] | binding result (FOXA2 forkhead domain [5]) | binding result (FOXA1 forkhead domain [6])
1 | CCGCCGTATTTACTGAGTAAATAGCCGCC (double strand) [2C (two canonical motifs separated by 3 nt)] | binds more weakly | binds more weakly | binds more weakly | binds | – | – | – | –
2 | CCGCCGCCGTGTTTACTTTGCCGCCGCC (double strand) [C (canonical FOXA motif)] | binds more weakly | binds more weakly | – | – | binds | binds | – | –
3 | CCGCCGTAAGTAAATATTTACTTAGCCGCC (double strand) [PAL (extended palindromic motif)] | binds more weakly | binds more weakly | binds more weakly | binds | – | – | – | –
4 | GTGTCTCCTGCTCTGTCAGCAGGGCACTGTACTTGCTGAT (double strand) [BLI 40-mer] | – | – | – | – | – | – | no binding | no binding

Source: paper doi:10.1101/2025.08.21.671500
